Results are given in words; binding and its absence hold for the method and conditions named. Binding seen in cells or lysates may run through a third protein. Some binding calls cover weakened binding; strength is not graded here.
Legend:
Flag-HA-tagged SMAD3 = Flag-HA-tagged SMAD3 (UniProt P84022); assay: co-IP; HEK293T cells co-transfected with indicated plasmids, lysed 48 h later in BC150 buffer (50 mM Tris-HCl pH 7.9, 150 mM NaCl, 0.5 mM EDTA) with 0.2% Triton X-100; cleared lysates immunoprecipitated with anti-HA or anti-Flag agarose beads; immunoblotting
[1] = biological target: Flag-tagged USP7 wildtype (WT) (UniProt Q93009); assay: as above

Amino acid sequences for entries named in this document (tags omitted).
UniProt P84022: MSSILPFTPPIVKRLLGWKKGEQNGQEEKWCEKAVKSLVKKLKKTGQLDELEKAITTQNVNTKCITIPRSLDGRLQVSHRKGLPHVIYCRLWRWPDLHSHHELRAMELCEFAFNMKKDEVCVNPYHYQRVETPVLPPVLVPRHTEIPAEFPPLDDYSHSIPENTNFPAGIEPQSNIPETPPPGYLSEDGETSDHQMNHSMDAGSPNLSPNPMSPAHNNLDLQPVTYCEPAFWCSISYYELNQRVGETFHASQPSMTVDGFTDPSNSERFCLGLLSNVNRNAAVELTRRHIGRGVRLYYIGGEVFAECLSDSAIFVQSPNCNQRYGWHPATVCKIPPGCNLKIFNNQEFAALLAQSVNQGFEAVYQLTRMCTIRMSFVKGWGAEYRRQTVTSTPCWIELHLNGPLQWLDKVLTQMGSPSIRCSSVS
UniProt Q93009: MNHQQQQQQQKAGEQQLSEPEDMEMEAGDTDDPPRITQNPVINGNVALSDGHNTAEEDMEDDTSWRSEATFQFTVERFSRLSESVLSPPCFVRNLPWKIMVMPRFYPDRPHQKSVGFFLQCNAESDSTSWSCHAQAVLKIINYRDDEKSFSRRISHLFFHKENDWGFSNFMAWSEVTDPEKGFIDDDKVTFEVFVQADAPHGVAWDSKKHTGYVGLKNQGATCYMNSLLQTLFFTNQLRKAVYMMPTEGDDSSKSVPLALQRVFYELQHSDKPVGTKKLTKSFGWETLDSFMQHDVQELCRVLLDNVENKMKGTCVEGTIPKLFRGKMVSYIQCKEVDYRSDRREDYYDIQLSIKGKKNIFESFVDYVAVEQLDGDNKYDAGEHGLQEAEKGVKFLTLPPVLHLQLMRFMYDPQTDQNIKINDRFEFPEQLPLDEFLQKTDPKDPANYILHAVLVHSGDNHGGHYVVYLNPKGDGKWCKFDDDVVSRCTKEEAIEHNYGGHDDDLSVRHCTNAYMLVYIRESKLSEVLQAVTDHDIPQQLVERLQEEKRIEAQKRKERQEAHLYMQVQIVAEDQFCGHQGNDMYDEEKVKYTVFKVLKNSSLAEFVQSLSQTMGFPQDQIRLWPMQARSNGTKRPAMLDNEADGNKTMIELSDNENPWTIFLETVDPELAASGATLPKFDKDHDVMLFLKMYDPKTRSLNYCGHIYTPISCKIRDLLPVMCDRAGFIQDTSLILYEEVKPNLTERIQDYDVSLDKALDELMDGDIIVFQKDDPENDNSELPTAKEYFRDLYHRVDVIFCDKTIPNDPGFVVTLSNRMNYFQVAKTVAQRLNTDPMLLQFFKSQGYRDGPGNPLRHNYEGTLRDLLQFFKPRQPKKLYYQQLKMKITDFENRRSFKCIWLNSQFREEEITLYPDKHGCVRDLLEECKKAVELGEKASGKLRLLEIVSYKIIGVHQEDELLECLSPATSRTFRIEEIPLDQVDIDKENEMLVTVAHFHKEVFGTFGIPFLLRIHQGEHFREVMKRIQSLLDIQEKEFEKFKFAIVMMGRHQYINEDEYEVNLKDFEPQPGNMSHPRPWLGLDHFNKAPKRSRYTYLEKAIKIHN

binding (Flag-HA-tagged SMAD3)	binding [1]	Substance
binds		Flag-tagged USP7 wildtype (WT) (from UniProt Q93009 1-1102) (enzyme)
	binds	Myc-tagged SMAD3 (from UniProt P84022 1-425)
